Data published in article PMC9693259, “Synthesis, Self-Assembly in Crystalline Phase and Anti-Tumor Activity of 2-(2-/4-Hydroxybenzylidene)thiazolo[3,2-a]pyrimidines” (Molecules, 2022).

Key:
Format in all cases: cell-based
Settings in all cases: selectivity index = IC50 normal cells (Chang liver) / IC50 cancer cells
[1] = test system: HuTu 80 human duodenal adenocarcinoma; assay: MTT cytotoxicity test, HuTu 80
Procedure: (§1) Formazan crystals were added to 100 µL of DMSO. […] The experiments for all compounds were repeated three times.

[2] = test system: PC3 prostate adenocarcinoma cell line; assay: MTT cytotoxicity test, PC3; parameters: key: ns—no selectivity
Procedure: as §1

[3] = test system: MCF-7 (human mammary duct adenocarcinoma cell line); assay: MTT cytotoxicity test, MCF-7; parameters: key: ns—no selectivity
Procedure: as §1

[4] = test system: M-HeLa clone 11 (epithelioid carcinoma of the cervix, subline HeLa, clone M-HeLa); assay: MTT cytotoxicity test, M-HeLa; parameters: key: ns—no selectivity
Procedure: as §1

| SMILES | SI HuTu 80 [1] | SI PC3 [2] | SI MCF-7 [3] | SI M-HeLa [4] |
| --- | --- | --- | --- | --- |
| CCOC(=O)C1=C(C)N=c2s/c(=C\c3ccccc3O)c(=O)n2C1c1cccc([N+](=O)[O-])c1 (stereo not drawn) [Compound 10, Ethyl (Z)-2-(2-hydroxybenzylidene)-7-methyl-5-(3-nitrophenyl)-3-oxo-2,3-dihydro-5H-thiazolo[3,2-a]pyrimidine-6-carboxylate] | 6.0 | 1.6 | 1.6 | 1.6 |
| CCOC(=O)C1=C(C)N=c2s/c(=C\c3ccccc3O)c(=O)n2C1c1ccccc1 (stereo not drawn) [Compound 7, ethyl (Z)-2-(2-hydroxybenzylidene)-7-methyl-3-oxo-5-phenyl-2,3-dihydro-5H-thiazolo[3,2-a]pyrimidine-6-carboxylate] | 7.5 | ns | 1.7 | 6.3 |
| CNC(=O)c1cc(Oc2ccc(NC(=O)Nc3ccc(Cl)c(C(F)(F)F)c3)cc2)ccn1 [Sorafenib, reference compound] | 1.7 | ns | ns | ns |
| CCOC(=O)C1=C(C)N=c2s/c(=C\c3ccccc3O)c(=O)n2C1c1ccc(Br)cc1 (stereo not drawn) [Compound 12, Ethyl (Z)-5-(4-bromophenyl)-2-(2-hydroxybenzylidene)-7-methyl-3-oxo-2,3-dihydro-5H-thiazolo[3,2-a]pyrimidine-6-carboxylate] | 3.3 | 2.8 | 1.5 | – |
